PubChem BioAssay AID1259308 | NCATS | 2017

- Assay: 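Knock-downs that increase output of a recombinant reporter protein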 (primary screen)
- Cells: human HEK293 embryonic kidney cells stably expressing firefly luciferase (HEK-CMV-Luc2-Hygro)
- Knock-down reagent: single siRNA against human genes, 0.8 pmol siRNA per well
- Duration: 72 h
- Measurement: 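Luciferase light (ONE-Glo) measured on one replicate plate set and viability (CellTiter-Glo) on the other, scaled to a negative control siRNA, with robust z-scores and luciferase per cell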
- Direction: total luciferase, z-score and total luciferase, % of control: higher = more reporter protein produced
- Rule for the call: 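Active when the median/MAD z-score for overall luciferase is greater than 3; a gene was taken forward for validation with new siRNAs if at least two of its three siRNAs passed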
- Calls: active = raised luciferase; inactive = no rise
The deposit covers about 59,000 reagents; this is a random part of them. In the full data, about 1,510 (2.6%) are marked active. 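Calls use total luciferase alone and ignore viability, so some active siRNAs may act by altering cell number.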 Reagents against one gene are numbered here. Further read-outs or replicates are left out here. Reagent sequences are not shown.

ANKS1B #1 → total luciferase, z-score = 0.0603; total luciferase, % of control = 83.1; Outcome = inactive
ANKS1B #2 → total luciferase, z-score = -1.94; total luciferase, % of control = 43.3; Outcome = inactive
ANKS1B #3 → total luciferase, z-score = -0.528; total luciferase, % of control = 71.4; Outcome = inactive
THOC6 #1 → total luciferase, z-score = -0.439; total luciferase, % of control = 73.2; Outcome = inactive
THOC6 #2 → total luciferase, z-score = -0.861; total luciferase, % of control = 64.8; Outcome = inactive
THOC6 #3 → total luciferase, z-score = -0.0373; total luciferase, % of control = 81.1; Outcome = inactive

2 of these entries, set out differently.
THOC6 #1
- total luciferase, z-score: -0.439
- total luciferase, % of control: 73.2
- Outcome: inactive

THOC6 #2
- total luciferase, z-score: -0.861
- total luciferase, % of control: 64.8
- Outcome: inactive

The results go on.
SLC1A1 #1 → total luciferase, z-score = -0.534; total luciferase, % of control = 71.3; Outcome = inactive
SLC1A1 #2 → total luciferase, z-score = 0.671; total luciferase, % of control = 95.2; Outcome = inactive
SLC1A1 #3 → total luciferase, z-score = -0.386; total luciferase, % of control = 74.2; Outcome = inactive
FSTL4 #1 → total luciferase, z-score = 0.914; total luciferase, % of control = 100; Outcome = inactive
FSTL4 #2 → total luciferase, z-score = 1.04; total luciferase, % of control = 103; Outcome = inactive
FSTL4 #3 → total luciferase, z-score = -0.257; total luciferase, % of control = 76.8; Outcome = inactive
